Test results as given in the supplement of paper PMC4604168 (melanoma cell lines).
This is one part of the list. Many values rest on one well or one pass, so single values are uncertain.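 The apoptosis fraction was the count of cleaved-PARP antibody-stained nuclei relative to all DNA-stained nuclei, imaged in 1,536-well plates. Screening doses were set so most cells survived, and baseline and induced cleaved-PARP levels vary greatly across cell lines.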

The compounds below were run on SkMel2 (assay: cleaved PARP positive nuclei fraction relative to DMSO control; melanoma cells; higher = more apoptosis). Details: library dose: low library concentration; 72 h.

Compared with `CC(=O)c1c(C)c2cnc(Nc3ccc(N4CCNCC4)cn3)nc2n(C2CCCC2)c1=O` [palbociclib] + Nc1cccc2c1CN(C1CCC(=O)NC1=O)C2=O [lenalidomide] (first compound 0.04 µM, partner dose 1 µM), `Cc1nc(Nc2ncc(C(=O)Nc3c(C)cccc3Cl)s2)cc(N2CCN(CCO)CC2)n1` [dasatanib] + Nc1cccc2c1CN(C1CCC(=O)NC1=O)C2=O [lenalidomide] (first compound 0.004 µM, partner dose 1 µM) is lower in “cleaved PARP positive nuclei fraction” value: 90.5% for the first, 62.9% for the second.

First: CC(=O)c1c(C)c2cnc(Nc3ccc(N4CCNCC4)cn3)nc2n(C2CCCC2)c1=O [palbociclib] + COc1ccc(Cl)c(Nc2nc3ccccc3nc2NS(=O)(=O)c2cccc(NC(=O)C(C)(C)N)c2)c1 [XL147] (first compound 0.04 µM, partner dose 0.8 µM)
Second: C[C@]1(c2nc3c(C(N)=O)cccc3[nH]2)CCCN1 [Veliparib] + CC(C)(C)c1cnc(CSc2cnc(NC(=O)C3CCNCC3)s2)o1 [SNS-032] (first compound 1.4 µM, partner dose 0.01 µM)
The “cleaved PARP positive nuclei fraction” value of the first is lower: 47.3% for the first, 94.2% for the second.

Compared with `CC(=O)c1c(C)c2cnc(Nc3ccc(N4CCNCC4)cn3)nc2n(C2CCCC2)c1=O` [palbociclib] + Cc1nc(Nc2ncc(C(=O)Nc3c(C)cccc3Cl)s2)cc(N2CCN(CCO)CC2)n1 [dasatanib] (first compound 0.04 µM, partner dose 0.004 µM), `Nc1cccc2c1CN(C1CCC(=O)NC1=O)C2=O` (centres undefined) [lenalidomide] + COc1cc(Nc2ncc(F)c(Nc3ccc4c(n3)NC(=O)C(C)(C)O4)n2)cc(OC)c1OC [Tamatinib] (first compound 1 µM, partner dose 0.4 µM) is higher in “cleaved PARP positive nuclei fraction” value: 121% for the first, 162% for the second.

Compared with `C=CCNC1=C2C[C@@H](C)C[C@H](OC)[C@H](O)[C@@H](C)/C=C(\C)[C@H](OC(N)=O)[C@@H](OC)/C=C\C=C(/C)C(=O)NC(=CC1=O)C2=O` [Tanespimycin] + COc1ccc(Cl)c(Nc2nc3ccccc3nc2NS(=O)(=O)c2cccc(NC(=O)C(C)(C)N)c2)c1 [XL147] (first compound 0.002 µM, partner dose 0.8 µM), `CC(=O)c1c(C)c2cnc(Nc3ccc(N4CCNCC4)cn3)nc2n(C2CCCC2)c1=O` [palbociclib] + C[C@]1(c2nc3c(C(N)=O)cccc3[nH]2)CCCN1 [Veliparib] (first compound 0.04 µM, partner dose 1.4 µM) is higher in “cleaved PARP positive nuclei fraction” value: 98% for the first, 134% for the second.

Going from `OCc1c[nH]c2ccccc12` [Indole-3-carbinol] + C#Cc1cccc(Nc2ncnc3cc(OCCOC)c(OCCOC)cc23)c1 [erlotinib] (first compound 0.8 µM, partner dose 0.8 µM) to `COCC[n+]1c2c(n(Cc3cnccn3)c1C)C(=O)c1ccccc1C2=O` + Nc1cccc2c1CN(C1CCC(=O)NC1=O)C2=O [lenalidomide] (first compound 0.0004 µM, partner dose 1 µM), the “cleaved PARP positive nuclei fraction” value rises from 137% to 146%.

Going from `C=CCNC1=C2C[C@@H](C)C[C@H](OC)[C@H](O)[C@@H](C)/C=C(\C)[C@H](OC(N)=O)[C@@H](OC)/C=C\C=C(/C)C(=O)NC(=CC1=O)C2=O` [Tanespimycin] + C#Cc1cccc(Nc2ncnc3cc(OCCOC)c(OCCOC)cc23)c1 [erlotinib] (first compound 0.002 µM, partner dose 0.8 µM) to `CC(=O)c1c(C)c2cnc(Nc3ccc(N4CCNCC4)cn3)nc2n(C2CCCC2)c1=O` [palbociclib] + C#Cc1cccc(Nc2ncnc3cc(OCCOC)c(OCCOC)cc23)c1 [erlotinib] (first compound 0.04 µM, partner dose 0.8 µM), the “cleaved PARP positive nuclei fraction” value rises from 17.6% to 134%.

Compared with `C=CCNC1=C2C[C@@H](C)C[C@H](OC)[C@H](O)[C@@H](C)/C=C(\C)[C@H](OC(N)=O)[C@@H](OC)/C=C\C=C(/C)C(=O)NC(=CC1=O)C2=O` [Tanespimycin] + Clc1ccc(Nc2nnc(Cc3ccncc3)c3ccccc23)cc1 [vatalanib] (first compound 0.002 µM, partner dose 2 µM), `C#Cc1cccc(Nc2ncnc3cc(OCCOC)c(OCCOC)cc23)c1` [erlotinib] + C[C@]1(c2nc3c(C(N)=O)cccc3[nH]2)CCCN1 [Veliparib] (first compound 0.8 µM, partner dose 1.4 µM) is higher in “cleaved PARP positive nuclei fraction” value: 114% for the first, 223% for the second.
